From PMC5404917
These are yes or no findings as the source states them, for the method shown. Binding seen in cells or lysates may run through a third protein. Binding calls can cover weak binding; strength is not graded here. For some assays here: Sequences can lack the tags named with a protein.

Experiments:
[1] = biological target: T1, SCP1, wild type, overexpressed (tag not stated for these experiments) (UniProt Q9GZU7); assay: co-IP; overexpressed SCP1 immunoprecipitated from HEK293T cells; endogenous AKT detected by immunoblotting
T1 sequence (chain, palmitoylated in HEK293T cells (ABE assay); Cys44 and Cys45 the major sites): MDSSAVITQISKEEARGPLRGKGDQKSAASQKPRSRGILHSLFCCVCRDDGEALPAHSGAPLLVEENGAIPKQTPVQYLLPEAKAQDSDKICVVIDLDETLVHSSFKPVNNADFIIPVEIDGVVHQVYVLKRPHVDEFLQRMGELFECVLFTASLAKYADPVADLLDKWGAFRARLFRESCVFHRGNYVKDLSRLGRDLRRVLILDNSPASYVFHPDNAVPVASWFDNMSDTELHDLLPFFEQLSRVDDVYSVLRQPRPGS

[2] = biological target: T2, SCP1 (small CTD phosphatase 1), endogenous (human (endogenous in HEK293T)) (UniProt Q9GZU7); assay: co-IP; endogenous SCP1 immunoprecipitated from HEK293T cells with an anti-SCP1 antibody; associated endogenous AKT detected with an anti-AKT antibody
T2 sequence (chain, palmitoylated in HEK293T cells (ABE assay); Cys44 and Cys45 the major sites): T1 sequence (chain, palmitoylated in HEK293T cells (ABE assay); Cys44 and Cys45 the major sites)

binding [1]: binds
binding [2]: binds
Substance: AKT, endogenous (human (endogenous in HEK293T)) (enzyme)
